Assay results reported in PubChem BioAssay AID2685 (National Center for Advancing Translational Sciences (NCATS), 2010).
This is one part of the list. Shown are side measurements of this screen, not its main read-out; they come without a call. Compounds called inactive in the main read-out are mostly missing here. Potencies come from curve fits of mixed quality, noted in brackets.

Assay: qHTS Assay for Lipid Storage Modulators in Drosophila S3 Cells;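 as to cell number change: cells counted by Cell Tracker Red CMTPX staining in the red channel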
Conditions: BODIPY lipid droplet fluorescence, 18-24 h; for cell number change: measured here: cell count max response, cells fed with added oleic acid
Summary of the method: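 Drosophila S3 cells loaded with oleic acid (400 uM, as added) and compounds at several concentrations; lipid droplets imaged by 488-nm laser-scanning cytometry, 500–530 nm intensity and object ratio to cell channel. Percent activity normalized to 20 uM Triacsin C.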

[1] = measured here: cell number channel AC50, cells fed with added oleic acid
[2] = measured here: lipid fluorescence (Fed channel) AC50, cells fed with added oleic acid

| SMILES | cell number change [%] | AC50 [1] | AC50 [2] |
| --- | --- | --- | --- |
| CCCCCCOc1ccc(N2C(=O)CC(S/C(N)=N/N=C(\C)c3cccs3)C2=O)cc1 (stereo not given) | -48.2 | 9.2 µM [falling, partial curve, poor fit] | 0.259 µM [falling, full curve] |
| N#Cc1ccc(C(=O)Nc2cccc(NC(=O)c3ccco3)c2)c(F)c1 | -50.3 | 0.82 µM [falling, full curve] | 1.3 µM [falling, full curve] |
| CCNC(=S)NNC(=O)c1ccccn1 | -50.9 | 29.1 µM [falling, single point] | 29.1 µM [falling, single point] |
| C/C(=N\NC(=O)Cc1ccc(F)cc1)c1ccc(F)cc1 | -31.5 | 20.6 µM [falling, single point] | 29.1 µM [falling, single point] |
| COc1ccccc1C(=O)CSc1nccn1C | -22.9 |  | 29.1 µM [falling, single point] |
| Cc1cccc(C(=O)NCCCNC(=O)c2cccc(C)c2)c1 | -32.7 | 32.6 µM [falling, single point] |  |
| CCn1nc(NS(=O)(=O)c2ccc(NC(C)=O)cc2)c2cc3ccc(C)cc3nc21 | 41.1 | 25.9 µM [rising, single point] |  |
| O=C(N/N=C/c1ccoc1)c1ccc(Cl)cc1 | -18.4 |  |  |
| CCOC(=O)c1sc(Nc2nc(OC)cc(OC)n2)nc1C | 1.39 |  |  |
| Cc1ccsc1C1C2=C(CC(C)(C)CC2=O)Nc2ncnn21 (stereo not given) | 17.2 |  |  |
| C=CCn1c(SCC(=O)NCC2CCCO2)nc2scc(-c3ccc(OC)cc3)c2c1=O (stereo not given) | -19.4 |  | 6.51 µM [falling, single point] |
| CC(c1nnnn1C(C)(C)C)N(Cc1cccnc1)Cc1ccccc1Cl (stereo not given) | 27.6 | 0.651 µM [rising, full curve] |  |
| Cc1csc(N/N=C/c2ccc([N+](=O)[O-])cc2)n1 | -18.6 |  | 0.731 µM [falling, single point] |
| CN(C)Cc1cc(C(C)(C)C)cc(C(C)(C)C)c1O | 20.5 | 1.16 µM [rising, full curve, poor fit] | 1.84 µM [rising, partial curve] |
| CC(C)CNC(=O)c1cccc(NC(=O)CCc2ccccc2)c1 | 2.95 |  | 0.00517 µM [rising, full curve, poor fit] |
| COc1ccc(C)cc1S(=O)(=O)n1c([N+](=O)[O-])cnc1C | 28.2 |  |  |
| O=C(NCC(=O)N1CCN(C(=O)c2ccccc2)CC1)c1ccc(Cl)cc1Cl | 6.84 |  | 5.17 µM [rising, partial curve] |
| O=C(O)c1ccc2nc(CO)[nH]c2c1 | -38.3 | 16.4 µM [falling, partial curve] | 0.461 µM [falling, partial curve, poor fit] |
| O=C(N/N=C/c1ccccc1C(=O)O)c1cccc(S(=O)(=O)Nc2cc(Cl)ccc2Cl)c1 | 13.8 |  |  |
| CCC(C)NC(=O)c1cccc(OCc2c(C)noc2C)c1 (stereo not given) | 47.1 |  | 18.4 µM [rising, single point] |
| COc1ccc2cc(C(=O)N3CCCCCC3)sc(=O)c2c1OC | -24.3 |  | 14.6 µM [falling, partial curve] |

Fetched one by one from above:

| SMILES | cell number change [%] | AC50 [1] | AC50 [2] |
| --- | --- | --- | --- |
| CC(C)CNC(=O)c1cccc(NC(=O)CCc2ccccc2)c1 | 2.95 |  | 0.00517 µM [rising, full curve, poor fit] |
| O=C(O)c1ccc2nc(CO)[nH]c2c1 | -38.3 | 16.4 µM [falling, partial curve] | 0.461 µM [falling, partial curve, poor fit] |

Shown as comma-separated lines: part of the list above
SMILES,cell number change [%],AC50 [1],AC50 [2]
COc1ccc(C)cc1S(=O)(=O)n1c([N+](=O)[O-])cnc1C,28.2,,
CCC(C)NC(=O)c1cccc(OCc2c(C)noc2C)c1 (stereo not given),47.1,,"18.4 µM [rising, single point]"

(list continues)

| SMILES | cell number change [%] | AC50 [1] | AC50 [2] |
| --- | --- | --- | --- |
| O=C(NCC(O)c1ccccc1)c1ccc(Cl)c(S(=O)(=O)N2CCCC2)c1 (stereo not given) | 33.3 | 16.4 µM [rising, single point] |  |
| Cc1sc(NC(=O)c2ccccc2)c(C(=O)N2CCN(C)CC2)c1C | -24.1 | 2.59 µM [falling, single point] |  |
| COc1ccc(N2CCN(c3ccc(NC(=O)C4CCCCC4)cc3C#N)CC2)cc1 | -147 | 29.1 µM [falling, single point] |  |
| CCOC(=O)C1CCCN(S(=O)(=O)c2ccc(Cl)nc2)C1 (stereo not given) |  | 0.58 µM [falling, single point] |  |
| COc1ccc(CCn2c(C3CCCCC3)nc3c(c(=O)c4ccccc4n3C)c2=O)cc1 |  | 0.461 µM [rising, full curve] | 0.58 µM [rising, full curve] |
| COC(=O)c1cc2n3ccccc3c(C)c(-c3ccccc3)c-2c1C(=O)OC |  | 2.91 µM [rising, partial curve] | 16.4 µM [falling, partial curve] |
| COc1ccc(CCNC(=O)c2ccc3ccccc3n2)cc1OC | 1.79 | 6.51 µM [falling, single point] |  |
| COC(=O)c1ccc(OC)c(CSc2nnc(COc3ccc(OC)cc3)o2)c1 |  |  | 29.1 µM [rising, single point] |
| COc1cc(C)ccc1OCCCCNCc1ccccc1 | 3.89 |  | 0.731 µM [rising, single point] |
| C/C(=N\NC(=O)c1ccccc1)c1nc2ccccc2n1C | -2.41 |  | 0.164 µM [rising, full curve, poor fit] |
| COCCCN1C(=O)C(=O)/C(=C(/O)c2ccc(OC(C)C)cc2)C1c1ccc(O)c(OC)c1 (stereo not given) | 5.29 | 0.651 µM [falling, single point] | 0.58 µM [falling, single point] |
| CCOCC(=O)N1CCN(c2ccccc2OC)CC1 | 14.7 |  |  |
| Cc1ccc(-c2nnn(CC(=O)N(Cc3cccs3)C(C(=O)NCC3CCCO3)c3ccco3)n2)o1 (stereo not given) | -15.2 |  | 29.1 µM [falling, single point] |
| Cc1c(C)n(CC(O)CN2CCCCC2)c2ccccc12 (stereo not given) | -15.9 |  |  |
| COc1ccc(CN2CCC(C(=O)N(C)CCc3ccc(OC)c(OC)c3)CC2)c(OC)c1 | -7.94 | 0.517 µM [falling, full curve, poor fit] |  |
| C/C(=N/NS(=O)(=O)c1ccc(C)cc1)c1cccc(NC(=O)c2cccc(Cl)c2)c1 | 96.6 | 23.1 µM [rising, single point] | 0.731 µM [rising, single point] |
| CC1(C)CC(=O)C=C(NCCO)C1 | -3.63 |  |  |
| CC(=O)N1CCN(S(=O)(=O)c2cccc(C(=O)NNC(=O)Cn3nc(C)cc3C)c2)CC1 | -33.8 | 32.6 µM [falling, single point] | 0.731 µM [falling, full curve] |
| CCOC(=O)c1cccc(NC(=O)C2(S(=O)(=O)c3ccc(C)cc3)CC2)c1 | -2.5 |  | 1.16 µM [falling, single point] |
| CSCc1cc(N(C)C)nc(SCc2ccc(Cl)c(Cl)c2)n1 | -8.19 |  |  |
| FC(F)(F)c1cccc(NC(=S)N(CCCN2CCCC2)Cc2cccn2Cc2ccc(Cl)cc2)c1 | -87.1 | 20.6 µM [falling, single point] | 20.6 µM [falling, single point] |

| SMILES | cell number change [%] | AC50 [1] | AC50 [2] |
| --- | --- | --- | --- |
| O=C(Nc1ccccc1-c1ccccc1)c1cccc([N+](=O)[O-])c1 | 4.34 |  | 6.51 µM [rising, single point] |
| CCOc1ccc(NC(=O)C2CCN(S(=O)(=O)c3ccc4c(c3)CC(C)N4C(C)=O)CC2)cc1 (stereo not given) | -18.5 |  | 0.0184 µM [rising, single point] |
| Cc1ccc(C(O)c2ccncc2)cc1 (stereo not given) | 15.1 |  | 0.731 µM [falling, full curve] |
| CCOC(=O)n1c(SCC(=O)N(CC)CC)nc2ccccc21 |  | 6.51 µM [rising, single point] | 7.31 µM [rising, partial curve] |
| CCCCNC1CCS(=O)(=O)C1 (stereo not given) | -78.1 | 29.1 µM [falling, single point] |  |
| O=C(CC1C(=O)NCCN1Cc1cccc(F)c1)NC1CCCCCC1 (stereo not given) | 35.5 | 29.1 µM [rising, single point] | 20.6 µM [rising, single point] |
| CC(OC(=O)c1cccc(S(=O)(=O)N2CCN(C)CC2)c1)C(=O)Nc1ccc(C(N)=O)cc1 (stereo not given) | 2.26 |  | 1.46 µM [falling, partial curve, poor fit] |
| CCOC(=O)c1cnc(SCC(=O)OCC(=O)NC2CCS(=O)(=O)C2)nc1N (stereo not given) | 6.12 |  | 2.91 µM [falling, full curve] |
| CCOc1ccc(-c2noc(COC)n2)cc1OC |  | 1.03 µM [rising, full curve] |  |
| COc1ccc(CCC(C)N(C)Cc2ccccc2)cc1 (stereo not given) | 2.2 |  | 29.1 µM [rising, partial curve, poor fit] |
| O=C(NCCN1CCOCC1)c1cc2cc(Br)ccc2oc1=O | 25.5 |  |  |
| O=C1/C(=C/c2ccc([N+](=O)[O-])cc2)CCc2ccccc21 | 21.9 |  | 0.517 µM [rising, full curve] |
| Cc1nc2c(Br)c(C)nn2c2c1CCC2 | 11.3 |  |  |
| C=CCn1c(SCC(=O)NC)nnc1C12CC3CC(CC(C3)C1)C2 | -21.2 |  | 0.0291 µM [falling, full curve, poor fit] |
| O=C(Cn1ccc(NC(=O)OCc2ccccc2)nc1=O)NCc1ccc2c(c1)OCO2 | -13 |  | 2.06 µM [falling, single point] |
| CCOc1ccc(C(=O)NC2CCN(CC(=O)NCc3ccccc3)CC2)cc1 | 10.5 |  | 23.1 µM [rising, partial curve] |
| Cc1cc(C)n(-c2ccc(C(=O)OCc3ccccc3)cc2)n1 | 13.4 |  | 5.8 µM [rising, partial curve] |
| Cc1ccc2nc(SC(C)C(=O)N3CCCCC3)[nH]c2c1 (stereo not given) | 1.64 |  |  |
| CCOC(=O)c1c(-c2cccc3ccccc23)csc1NC(=O)C1C2CCC(O2)C1C(=O)O (stereo not given) | -21.7 |  | 1.3 µM [falling, full curve, poor fit] |
| CCn1c(COc2ccccc2)nnc1SCC(=O)Nc1cc(C)ccc1OC | -14.6 |  | 18.4 µM [falling, single point] |
